Experimental data: PMC5856207
No constants are given. Whether binding was seen depends on the method and setting. Binding seen in cells or lysates may run through a third protein. Some binding calls cover weakened binding; strength is not graded here.

Sequences of proteins named here, by UniProt entry; tags and fusion partners are left off. A change or cut given only in a name is not applied to a line headed by its entry. A line that says so, or that is headed by a name, gives the form on record, which may keep a tag or linker. Residues count along the entry.
T-E39 (P01589, form named): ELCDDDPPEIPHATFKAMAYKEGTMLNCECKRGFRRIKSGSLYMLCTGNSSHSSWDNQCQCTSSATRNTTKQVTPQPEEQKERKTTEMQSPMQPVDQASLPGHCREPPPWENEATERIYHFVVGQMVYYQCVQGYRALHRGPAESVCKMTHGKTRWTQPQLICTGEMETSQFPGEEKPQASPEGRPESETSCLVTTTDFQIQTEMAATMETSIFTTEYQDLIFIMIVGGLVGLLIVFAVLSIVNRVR
T-E26 (P01589, form named): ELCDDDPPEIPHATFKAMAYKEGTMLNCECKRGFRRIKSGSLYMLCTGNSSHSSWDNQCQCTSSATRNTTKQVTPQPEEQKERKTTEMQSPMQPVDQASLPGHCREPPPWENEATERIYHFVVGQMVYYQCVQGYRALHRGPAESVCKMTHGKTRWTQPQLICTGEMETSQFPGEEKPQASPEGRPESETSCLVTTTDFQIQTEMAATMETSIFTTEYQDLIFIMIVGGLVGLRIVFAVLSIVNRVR
UniProt P04234, residues 22-171: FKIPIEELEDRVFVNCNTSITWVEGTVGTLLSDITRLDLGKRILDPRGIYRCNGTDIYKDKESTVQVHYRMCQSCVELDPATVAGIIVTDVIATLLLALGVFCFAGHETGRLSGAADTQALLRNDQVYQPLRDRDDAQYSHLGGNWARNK

How the values were obtained:
[1] = molecular target: T-E39 (not stated | HIV-1) (UniProt P01589); test: co-IP; HeLa cells co-transfected with a Tac chimeric construct and the δ chain of the CD3 receptor fused to β-galactosidase; Tac protein immunoprecipitated from the lysate with protein A-agarose beads coated with 7G7 antibodies; co-precipitated β-galactosidase activity revealed with Chlorophenol Red-β-D-galactopyranoside (absorbance at 600 nm), percentage of β-galactosidase immunoprecipitated
[2] = molecular target: T-E26 (not stated | HIV-1) (UniProt P01589); test: as above

How did the binding [1] turn out when “δ chain of the CD3 receptor fused to the β-galactosidase (from UniProt P04234 22-171)” was run?
Its binding is “no binding”.

And the binding [2]?
Its binding is “binds”.
